Reference: patent US8993592B2, “Cyclic amine compound and acaricide” (Nippon Soda Co., Ltd., priority 2009, dated 2015)
Some of these results come from one statement about several compounds together.

Assays:
Tetranychus urticae = assay: Efficacy test against Tetranychus urticae (spray on kidney bean plant); type: in vivo; settings: organic phosphorous-resistant adult female mites, 3 days after spraying
Panonychus citri = assay: Efficacy test against Panonychus citri (spray on mandarin orange leaf); type: in vivo; settings: acaricide-resistant adult female mites, 3 days after spraying

Row | SMILES | insect mortality rate (Tetranychus urticae; emulsion diluted to 125 ppm) [%] | insect mortality rate (Panonychus citri; emulsion diluted to 31 ppm) [%] | further results
1 | CCOc1cc(C(F)(F)F)ccc1OC1CC2CCC(C1)N2Oc1ccc(C(F)(F)F)cn1 (centres unmarked) [Compound 1] | ≥ 80 | – | –
2 | CCCCOc1cc(C(F)(F)F)ccc1OC1CC2CCC(C1)N2Oc1ccc(C(F)(F)F)cn1 (centres unmarked) [Compound 2] | ≥ 80 | – | –
3 | CC(C)COc1cc(C(F)(F)F)ccc1OC1CC2CCC(C1)N2Oc1ccc(C(F)(F)F)cn1 (centres unmarked) [Compound 3] | – | ≥ 80 | insect mortality rate (Tetranychus urticae; emulsion diluted to 8 ppm): ≥ 80%
4 | FC(F)(F)c1ccc(ON2C3CCC2CC(Oc2ccc(C(F)(F)F)cc2OCC2CC2)C3)nc1 (stereo not drawn) [Compound 8, 3-endo-[2-cyclopropylmethoxy-4-(trifluoro-methyl)phenoxy]-8-[5-(trifluoromethyl)-2-pyridyloxy]-8-azabicyclo[3.2.1]octane] | – | ≥ 80 | insect mortality rate (Tetranychus urticae; emulsion diluted to 8 ppm): ≥ 80%
5 | COC(C)COc1cc(C(F)(F)F)ccc1OC1CC2CCC(C1)N2Oc1ccc(C(F)(F)F)cn1 (centres unmarked) [Compound 22] | – | ≥ 80 | insect mortality rate (Tetranychus urticae; emulsion diluted to 31 ppm): ≥ 80%
6 | COC(C)OCc1cc(C(F)(F)F)ccc1OC1CC2CCC(C1)N2Oc1ccc(C(F)(F)F)cn1 (centres unmarked) [Compound 27] | ≥ 80 | – | insect mortality rate (Panonychus citri; emulsion diluted to 125 ppm): ≥ 80%
7 | C=CC(C)OC(=O)c1cc(C(F)(F)F)ccc1OC1CC2CCC(C1)N2Oc1ccc(C(F)(F)F)cn1 (centres unmarked) [Compound 31] | ≥ 80 | ≥ 80 | –
8 | CC(C)=NOc1cc(C(F)(F)F)ccc1OC1CC2CCC(C1)N2Oc1ccc(C(F)(F)F)cn1 (centres unmarked) [Compound 38] | – | ≥ 80 | insect mortality rate (Tetranychus urticae; emulsion diluted to 8 ppm): ≥ 80%
9 | N#Cc1ccc(ON2C3CCC2CC(Oc2ccc(C(F)(F)F)cc2OCC2CC2)C3)nc1 (centres unmarked) [Compound 48] | – | – | insect mortality rate (Tetranychus urticae; emulsion diluted to 31 ppm): ≥ 80%
10 | FC(F)(F)c1ccc(OC2CC3CCC(C2)N3Oc2ccc(C(F)(F)F)c(Cl)n2)c(OCC2CC2)c1 (centres unmarked) [Compound 88] | ≥ 80 | – | –
11 | FC(F)(F)c1ccc(ON2C3CCC2CC(Oc2ccc(C(F)(F)F)cc2C2CC2)C3)nc1 (centres unmarked) [Compound 91] | ≥ 80 | – | –
12 | FC(F)(F)c1ccc(ON2C3CCC2CC(Oc2ccc(C(F)(F)F)cc2-c2ncco2)C3)nc1 (centres unmarked) [Compound 92] | ≥ 80 | – | –
13 | CCC(C)COc1cc(C(F)(F)F)ccc1OC1CC2CCC(C1)N2Oc1ccc(C(F)(F)F)cn1 (centres unmarked) [Compound 242] | – | ≥ 80 | insect mortality rate (Tetranychus urticae; emulsion diluted to 31 ppm): ≥ 80%
14 | CCC(C)OC(=O)c1cc(C(F)(F)F)ccc1OC1CC2CCC(C1)N2Oc1ccc(C(F)(F)F)cn1 (centres unmarked) [Compound 243] | ≥ 80 | ≥ 80 | –
15 | FC(F)(F)COc1cc(C(F)(F)F)ccc1OC1CC2CCC(C1)N2Oc1ccc(C(F)(F)F)cn1 (centres unmarked) [Compound 244] | ≥ 80 | – | –
16 | FC(F)(F)CCOc1cc(C(F)(F)F)ccc1OC1CC2CCC(C1)N2Oc1ccc(C(F)(F)F)cn1 (centres unmarked) [Compound 245] | ≥ 80 | – | –

Row | SMILES | insect mortality rate (Tetranychus urticae; emulsion diluted to 125 ppm) [%] | insect mortality rate (Panonychus citri; emulsion diluted to 31 ppm) [%] | further results
17 | CC(Cl)COc1cc(C(F)(F)F)ccc1OC1CC2CCC(C1)N2Oc1ccc(C(F)(F)F)cn1 (centres unmarked) [Compound 246] | – | ≥ 80 | insect mortality rate (Tetranychus urticae; emulsion diluted to 31 ppm): ≥ 80%
18 | CC(F)(F)COc1cc(C(F)(F)F)ccc1OC1CC2CCC(C1)N2Oc1ccc(C(F)(F)F)cn1 (centres unmarked) [Compound 247] | ≥ 80 | ≥ 80 | –
19 | CC(F)COc1cc(C(F)(F)F)ccc1OC1CC2CCC(C1)N2Oc1ccc(C(F)(F)F)cn1 (centres unmarked) [Compound 248] | – | ≥ 80 | insect mortality rate (Tetranychus urticae; emulsion diluted to 31 ppm): ≥ 80%
20 | CC(C)OC(=O)c1cc(C(F)(F)F)ccc1OC1CC2CCC(C1)N2Oc1ccc(C(F)(F)F)cn1 (centres unmarked) [Compound 249] | ≥ 80 | – | insect mortality rate (Panonychus citri; emulsion diluted to 125 ppm): ≥ 80%
21 | CCCOc1cc(C(F)(F)F)ccc1OC1CC2CCC(C1)N2Oc1ccc(C)cn1 (centres unmarked) [Compound 252] | ≥ 80 | – | insect mortality rate (Panonychus citri; emulsion diluted to 125 ppm): ≥ 80%
22 | CCCOc1cc(C(F)(F)F)ccc1OC1CC2CCC(C1)N2Oc1ccc(Br)cn1 (centres unmarked) [Compound 253] | ≥ 80 | – | –
23 | CCCOc1cc(C(F)(F)F)ccc1OC1CC2CCC(C1)N2Oc1cccc(C(F)(F)F)n1 (centres unmarked) [Compound A-44] | ≥ 80 | – | –
24 | FC(F)(F)c1ccc(OC2CC3CCC(C2)N3Oc2ccc(C(F)(F)F)nn2)c(OCC2CC2)c1 (centres unmarked) [Compound G-2] | ≥ 80 | – | –
25 | FC(F)(F)c1ccc(OC2CC3CCC(C2)N3Oc2nnc(C(F)(F)F)s2)c(OCC2CC2)c1 (centres unmarked) [Compound G-34] | ≥ 80 | – | insect mortality rate (Panonychus citri; emulsion diluted to 125 ppm): ≥ 80%
26 | CCCOc1cc(C(F)(F)F)ccc1OC1CC2CCC(C1)N2Oc1ccc(C(F)(F)F)c(F)c1 (centres unmarked) [Compound G-49] | ≥ 80 | – | insect mortality rate (Panonychus citri; emulsion diluted to 125 ppm): ≥ 80%
27 | FC(F)(F)c1ccc(OC2CC3CCC(C2)N3Oc2ccc(C(F)(F)F)nc2)c(OCC2CC2)c1 (centres unmarked) [Compound G-50] | ≥ 80 | – | insect mortality rate (Panonychus citri; emulsion diluted to 125 ppm): ≥ 80%
28 | COc1cc(C(F)(F)F)nc(ON2C3CCC2CC(Oc2ccc(C(F)(F)F)cc2OCC2CC2)C3)n1 (centres unmarked) [Compound G-57] | ≥ 80 | – | insect mortality rate (Panonychus citri; emulsion diluted to 125 ppm): ≥ 80%
29 | CC(C)OC(=O)c1cc(C(F)(F)F)ccc1ON1C2CCC1CC(Oc1ccc(C(F)(F)F)cn1)C2 (centres unmarked) [Compound K-4] | ≥ 80 | – | insect mortality rate (Panonychus citri; emulsion diluted to 125 ppm): ≥ 80%
30 | CCOC(=O)c1cc(C(F)(F)F)ccc1ON1C2CCC1CC(Oc1ccc(C(F)(F)F)cn1)C2 (centres unmarked) [Compound K-13] | ≥ 80 | – | insect mortality rate (Panonychus citri; emulsion diluted to 125 ppm): ≥ 80%
31 | CC(C)COc1cc(C(F)(F)F)ccc1OC1CC2CCC(C1)N2Oc1ccc(C(F)(F)F)cn1 (centres unmarked) [Compound M-1] | ≥ 80 | – | –
